{"source": "the supplement of paper PMC10338343", "note": "± gives the standard deviation. Only a part is listed here, and it is no random draw. The uncertainty is large for many entries."}
{"system": "MILI (PIWIL2) piRISC loaded with L1MC piRNA (26 nt)", "assay": "pre-steady-state target cleavage rate (min^-1); higher = faster piRNA-guided slicing of the target", "conditions": "guide: L1MC piRNA 5'p-UAACUAAAUACUAUGCAAGCUGUAGG; auxiliary factor: 500 nM mouse GTSF1", "experimental": "(§1)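 Cleave-'n-Seq: a library of target RNAs (target site embedded in constant flanks, ACAGCATTCCGCGTTAGTGATATCCG... 5' flank; DNA-blocked outside the site) at 0.1 nM was incubated with 1 nM active mouse MILI or MIWI piRISC (synthetic 5'-monophosphorylated piRNA guide) with or without 500 nM mouse GTSF1 at 33 °C for 1 min to 16 h. Uncleaved targets were sequenced and normalised to non-target controls, and the pooled three trials were fitted to a burst-and-steady-state model to give the pre-steady-state cleavage rate (min^-1; k3 is constrained to at most 1e-4). Sequence is the target site only; target names encode pairing extent (gX:gY) and contiguous / 1-mismatch / 2-mismatch / bulge geometry. Fits with R² ≤ 0 are excluded.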"}
{"sequence": "UCCUGGAUGUCCUUGGAUACUAUUUAGUUA", "pre-steady-state target cleavage rate": "0.0119 ± 0.0061"}
{"sequence": "UCCUGGAUGUCGAAGCAUAGUAUUUUGUUA", "pre-steady-state target cleavage rate": "0.0221 ± 0.0061"}
{"sequence": "UCCUGGAUGUGCUUGCAAUCUAUUUAGUAA", "pre-steady-state target cleavage rate": "0.000635 ± 0.011"}
{"sequence": "UCCUGGAUGAGGAAGCAUAGUAUUUACAAA", "pre-steady-state target cleavage rate": "0.00235 ± 0.0055"}
{"sequence": "UCCUGGAUCAGCUUGCAAUAGUAUUUAGUUA", "pre-steady-state target cleavage rate": "0.00703 ± 0.0039"}
{"sequence": "UCCUGGAUGUCGAACGUAAGUUUUAGUUA", "pre-steady-state target cleavage rate": "0.000137 ± 0.052"}
{"sequence": "UCCUGGAUGUGCUUGCGAUAGUAUUUAGUUA", "pre-steady-state target cleavage rate": "0.00133 ± 0.0074"}
{"sequence": "UCCUGGAUGUCGAACGUUUGUUUUUAGUUA", "pre-steady-state target cleavage rate": "0.000212 ± 0.038"}
{"sequence": "UCCUGGAUGUGCUUGCAUAGUAUAAAGAAA", "pre-steady-state target cleavage rate": "0.00156 ± 0.0086"}
{"sequence": "UCCUGGAUGUCGUUGCAUAAGUAUUUAGUUA", "pre-steady-state target cleavage rate": "0.00128 ± 0.0075"}
{"sequence": "UCCUGGAACAGGUUGCAUAGUAUUUACUUA", "pre-steady-state target cleavage rate": "0.0532 ± 0.012"}
{"sequence": "UCCUCCUACAGCUACGAUAGUAUUUAGAAA", "pre-steady-state target cleavage rate": "0.13 ± 0.029"}
{"sequence": "UCCUGGAUCAGCUUGCAUACUUUUUAGUUA", "pre-steady-state target cleavage rate": "0.00227 ± 0.0053"}
{"sequence": "UCCUCCUAGUGCUUGCAUAGUAUUUAGUAA", "pre-steady-state target cleavage rate": "0.114 ± 0.019"}
{"system": "MILI (PIWIL2) piRISC loaded with L1MC piRNA (26 nt)", "assay": "pre-steady-state target cleavage rate (min^-1); MIWI and MILI are mouse PIWI proteins and EfPiwi is from a freshwater sponge; tags in brackets are library labels; higher = faster piRNA-guided slicing of the target", "conditions": "guide: L1MC piRNA 5'p-UAACUAAAUACUAUGCAAGCUGUAGG; auxiliary factor: none (no GTSF1)", "experimental": "as §1"}
{"sequence": "UCCUGGAUGUCCUUGGAUACUAUUUAGUUA", "pre-steady-state target cleavage rate": "0.0016 ± 0.0052"}
{"sequence": "UCCUGGAUGUCGAAGCAUAGUAUUUUGUUA", "pre-steady-state target cleavage rate": "0.00241 ± 0.0023"}
{"sequence": "UCCUGGAUGUCGAUGUCAUAGUAUUUAGUUA", "pre-steady-state target cleavage rate": "0.000835 ± 0.0067"}
{"sequence": "UCCUCCUACUCGUUGCAUAGUAUUUUCAAA", "pre-steady-state target cleavage rate": "0.000851 ± 0.0039"}
{"sequence": "UCCUGGAUGUGCUUGCAAUCUAUUUAGUAA", "pre-steady-state target cleavage rate": "0.000421 ± 0.013"}
{"sequence": "UCCUGGAUGAGGAAGCAUAGUAUUUACAAA", "pre-steady-state target cleavage rate": "0.000461 ± 0.011"}
{"sequence": "UCCUGGAUGUGCUUGCAUAGUAUUUAGUCUA", "pre-steady-state target cleavage rate": "0.000474 ± 0.019"}
{"sequence": "UCCUGGUACAGCUUGCAUUCAUAAAUCAAA [g13:g24:cont:t1A]", "pre-steady-state target cleavage rate": "0.00123 ± 0.005"}
{"sequence": "UCCUGGAUCAGCUUGCAAUAGUAUUUAGUUA", "pre-steady-state target cleavage rate": "0.00119 ± 0.0063"}
{"sequence": "UCCUGGAUGAGCUUGCAUAGUAUAUAGAUA", "pre-steady-state target cleavage rate": "0.00127 ± 0.0063"}
{"sequence": "UCCUGGAUGUGCUUGCGAUAGUAUUUAGUUA", "pre-steady-state target cleavage rate": "0.000541 ± 0.014"}
{"sequence": "UCCUGCUACAGCUUGCAUAGUAAAUACAAA", "pre-steady-state target cleavage rate": "0.000944 ± 0.0065"}
{"sequence": "UCCUGGAUGUCGAACGUUUGUUUUUAGUUA", "pre-steady-state target cleavage rate": "0.000111 ± 0.018"}
{"sequence": "UCCUGGAUGUGCUUGCAUAGUAUAAAGAAA", "pre-steady-state target cleavage rate": "0.000566 ± 0.0097"}
{"sequence": "UCCUGGAUGUCGUUGCAUAAGUAUUUAGUUA", "pre-steady-state target cleavage rate": "0.00111 ± 0.0075"}
{"sequence": "UCCUGGUACAGCUUGCAUUGUAAUUAGUUA", "pre-steady-state target cleavage rate": "0.00368 ± 0.0037"}
{"sequence": "UCCUGGAACAGGUUGCAUAGUAUUUACUUA", "pre-steady-state target cleavage rate": "0.00203 ± 0.0036"}
{"sequence": "UCCUCCUACAGCUACGAUAGUAUUUAGAAA", "pre-steady-state target cleavage rate": "0.000529 ± 0.0094"}
{"sequence": "UCCUGGAUGUCGUUGCAUAGUAUUUAUUUA", "pre-steady-state target cleavage rate": "0.00216 ± 0.0043"}
{"sequence": "UCCUGGAUCAGCUUGCAUACUUUUUAGUUA", "pre-steady-state target cleavage rate": "0.00168 ± 0.0041"}
{"sequence": "UCCUGGAUGUGCUUGCAUAGUCAUUUAGUUA", "pre-steady-state target cleavage rate": "0.00292 ± 0.0036"}
{"sequence": "UCCUGGUACAGCUUGCAUAGAAUUUUCAAA", "pre-steady-state target cleavage rate": "0.00121 ± 0.0073"}
{"sequence": "UCCUGGAUGUGCUUGCAUAGUAUUUUCAAA", "pre-steady-state target cleavage rate": "0.000626 ± 0.0079"}
{"sequence": "UCCUCCUAGUGCUUGCAUAGUAUUUAGUAA", "pre-steady-state target cleavage rate": "0.00146 ± 0.0032"}
{"sequence": "UCCUGGAUGACCUUGCAUAGUUUUUAGUUA", "pre-steady-state target cleavage rate": "0.00306 ± 0.0033"}
{"sequence": "UCCUGGAUGUCGAUGCAUUCUAUUUAGUUA", "pre-steady-state target cleavage rate": "0.000456 ± 0.013"}
